# Measurements reported in PubChem BioAssay AID1159584 (Peter MacCallum Cancer Centre, 2016)
# Assay: 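Knock-downs that harm CDH1-null cells more than parental MCF10A cells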 (primary screen)
# System: human MCF10A breast epithelial cells, parental and CDH1-null
# Reagent: siRNA against human genes
# Read-out: 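ATP luminescence (CellTiter-Glo) viability per line relative to mean mock wells over all plates, and the ratio of CDH1-null to parental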
# Direction: CDH1-null / parental viability ratio: higher = CDH1-null cells survive relatively better than parental
# Here is a random part of about 18,000 deposited reagents. Reagents against one gene are numbered here. Further read-outs or replicates are left out here. The record does not give: the amount of reagent, the time to read-out.
CDH1-null / parental viability ratio,Gene,reagent
1.05,OR2W3,1
0.99,PIP5KL1,1
1,MRPS12,1
1.11,EPM2A,1
1.44,COMMD7,1
1.06,SLC26A7,1
0.89,PRXL2B,1
0.67,GPR132,1
0.97,XAGE3,1
1,LMO2,1
1.42,SCN1B,1
0.81,CCNC,1
0.99,SETD9,1
0.87,FAF1,1
1.49,TMA7,1
1.3,KLF4,1
0.88,ABCB4,1
1.16,ADAMTS4,1
1.05,YBX2,1
1.16,VPREB3,1
1.06,AK4,1
0.91,AK4,2
0.94,TRIM52,1
0.69,OXGR1,1
1.01,CPT2,1
1.05,PLSCR5,1
1.02,CRYGC,1
0.87,MAB21L3,1

Copied from the list.
Result for SETD9 in “CDH1-null / parental viability ratio”: 0.99
Entry of SCN1B under “CDH1-null / parental viability ratio”: 1.42
